# In article PMC11997425, “MADS-domain transcription factor AGAMOUS LIKE-9 participates in the gibberellin pathway to promote bud dormancy release of tree peony”:
# Amino acid sequences for entries named in this document (tags omitted). A change or cut given only in a name is not applied to a line headed by its entry.
# UniProt V9I0Q3: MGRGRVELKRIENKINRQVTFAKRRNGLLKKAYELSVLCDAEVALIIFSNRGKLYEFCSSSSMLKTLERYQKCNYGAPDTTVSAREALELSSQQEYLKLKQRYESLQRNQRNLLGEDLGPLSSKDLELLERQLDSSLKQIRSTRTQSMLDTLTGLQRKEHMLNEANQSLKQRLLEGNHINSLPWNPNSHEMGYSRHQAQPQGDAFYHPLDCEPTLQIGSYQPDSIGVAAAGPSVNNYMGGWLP
# Results are given in words; binding and its absence hold for the method and conditions named. Binding calls can cover weak binding; strength is not graded here.
# Assays:
# [1] = target: GST-PsAGL6 fusion protein (Paeonia suffruticosa (tree peony)); assay: pull-down; GST fusion proteins immobilised on Glutathione Magnetic Agarose Beads; MBP-PsAGL9 incubated with the beads; immunoblot with anti-MBP or anti-GST; both purified
# [2] = target: GST-PsAGL9 fusion protein (Paeonia suffruticosa (tree peony)) (UniProt V9I0Q3); assay: as above
substance,measurement,setting,value
MBP-PsAGL9 fusion protein (from UniProt V9I0Q3),binding,[1],binds
same,binding,[2],binds
